# Measured values taken from publication PMC5789003.
# No constants are given. Whether binding was seen depends on the method and setting. Some results given as binding are weak or reduced against the parent protein; the word gives no strength.
# T1: Mfa1 (shaft protein of the Mfa1 fimbria), wild type, in P. gingivalis (Porphyromonas gingivalis) (UniProt B2RHG1)
# T1 sequence: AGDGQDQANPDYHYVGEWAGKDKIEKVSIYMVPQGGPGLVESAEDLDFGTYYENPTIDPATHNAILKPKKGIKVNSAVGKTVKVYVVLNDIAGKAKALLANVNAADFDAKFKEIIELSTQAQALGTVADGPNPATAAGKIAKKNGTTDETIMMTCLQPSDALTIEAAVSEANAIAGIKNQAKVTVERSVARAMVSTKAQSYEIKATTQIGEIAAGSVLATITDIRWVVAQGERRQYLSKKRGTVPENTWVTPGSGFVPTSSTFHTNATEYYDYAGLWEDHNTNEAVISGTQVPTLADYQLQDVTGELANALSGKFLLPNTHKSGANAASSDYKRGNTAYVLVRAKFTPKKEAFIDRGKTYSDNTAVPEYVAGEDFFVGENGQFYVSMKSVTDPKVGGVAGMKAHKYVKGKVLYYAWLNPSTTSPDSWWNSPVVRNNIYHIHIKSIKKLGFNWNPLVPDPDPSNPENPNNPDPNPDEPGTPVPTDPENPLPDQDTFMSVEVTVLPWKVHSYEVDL
# B1: Mfa2 (anchor protein of the Mfa1 fimbria), wild type, in P. gingivalis (protein, UniProt B2RHG2 29-324)
# chain: CDKMIYDNYDDCPRGVYVNFYSQTECAENPSYPAEVARLNVYAFDKDGILRSANVFEDVQLSAAKEWLIPLEKDGLYTIFAWGNIDDHYNIGEIKIGETTKQQVLMRLKQDGKWATNIDGTTLWYATSPVVELKNMEDGADQYIHTRANLREYTNRVTVSVDSLPHPENYEIKLASSNGSYRFDGTVAKADSTYYPGETKVVGDSTCRAFFTTLKLESGHENTLSVTHKPTGREIFRTDLVGAILSSQYAQNINLRCINDFDIRLVAHHCNCPDDTYVVVQIWINGWLIHSYEIEL
# modifications: lipidated cysteine (Cys29); disulphide bonds Cys54-Cys285 and Cys298-Cys300
# Assays:
# [1] = target: T1, Mfa1 (shaft protein of the Mfa1 fimbria), wild type, in P. gingivalis (Porphyromonas gingivalis); assay: SDS-PAGE and immunoblot of partially heat-denatured fimbriae (ladder-like pattern)
# [2] = target: Mfa2 (anchor protein of the Mfa1 fimbria), wild type, in P. gingivalis (Porphyromonas gingivalis) (UniProt B2RHG2); assay: condition: only with 2-mercaptoethanol in the SDS-PAGE buffer; SDS-PAGE and immunoblot of partially heat-denatured fimbriae (ladder-like pattern)
# [3] = target: T1, Mfa1 (shaft protein of the Mfa1 fimbria), wild type, in P. gingivalis (Porphyromonas gingivalis); assay: as above
binder,measurement,setting,value
B1,binding,[1],binds
same,binding,[2],no binding
same,binding,[3],no binding
